Experimental data reported in PMC8827149.
Results are given in words; binding and its absence hold for the method and conditions named. Binding can be weak; no strength is given.

Key:
[1] = target: BBX22IR, protein encoded by the intron-retained splicing variant of BBX22 (Arabidopsis thaliana); assay: two-hybrid; S. cerevisiae AH109; Gal4 AD fusion in pGAD-T7 (FL cDNA; for the self test AD-BBX22IR) with Gal4 BD fusion in pGBK-T7 (IR isoform); growth on DO-LWHA (-Leu -Trp -His -Adenine) at 28 °C for 2 days, DO-LW as control
[2] = target: BBX24IR, protein encoded by the intron-retained splicing variant of BBX24 (Arabidopsis thaliana); assay: as above

Binder	binding [1]	binding [2]
B-BOX DOMAIN PROTEIN 22 (BBX22), annotated full-length protein (protein, UniProt Q9SYM2 1-299) MKIQCNVCEAAEATVLCCADEAALCWACDEKIHAANKLAGKHQRVPLSASASSIPKCDICQEASGFFFCLQDRALLCRKCDVAIHTVNPHVSAHQRFLLTGIKVGLESIDTGPSTKSSPTNDDKTMETKPFVQSIPEPQKMAFDHHHHQQQQEQQEGVIPGTKVNDQTSTKLPLVSSGSTTGSIPQWQIEEIFGLTDFDQSYEYMENNGSSKADTSRRGDSDSSSMMRSAEEDGEDNNNCLGGETSWAVPQIQSPPTASGLNWPKHFHHHSVFVPDITSSTPYTGSSPNQRVGKRRRRF	binds	
B-BOX DOMAIN PROTEIN 24 (BBX24), annotated full-length protein (protein, UniProt Q96288 1-248) MKIQCDVCEKAPATVICCADEAALCPQCDIEIHAANKLASKHQRLHLNSLSTKFPRCDICQEKAAFIFCVEDRALLCRDCDESIHVANSRSANHQRFLATGIKVALTSTICSKEIEKNQPEPSNNQQKANQIPAKSTSQQQQQPSSATPLPWAVDDFFHFSDIESTDKKGQLDLGAGELDWFSDMGFFGDQINDKALPAAEVPELSVSHLGHVHSYKPMKSNVSHKKPRFETRYDDDDEEHFIVPDLG		binds
